Laboratory results from PMC8933280.
Results are given in words; binding and its absence hold for the method and conditions named. Binding seen in cells or lysates may run through a third protein. Some entries that bind do so weakly or less than the wild type.

Sequences of proteins named here, by UniProt entry; tags and fusion partners are left off. A change or cut given only in a name is not applied to a line headed by its entry. Residues count along the entry.
UniProt Q16659: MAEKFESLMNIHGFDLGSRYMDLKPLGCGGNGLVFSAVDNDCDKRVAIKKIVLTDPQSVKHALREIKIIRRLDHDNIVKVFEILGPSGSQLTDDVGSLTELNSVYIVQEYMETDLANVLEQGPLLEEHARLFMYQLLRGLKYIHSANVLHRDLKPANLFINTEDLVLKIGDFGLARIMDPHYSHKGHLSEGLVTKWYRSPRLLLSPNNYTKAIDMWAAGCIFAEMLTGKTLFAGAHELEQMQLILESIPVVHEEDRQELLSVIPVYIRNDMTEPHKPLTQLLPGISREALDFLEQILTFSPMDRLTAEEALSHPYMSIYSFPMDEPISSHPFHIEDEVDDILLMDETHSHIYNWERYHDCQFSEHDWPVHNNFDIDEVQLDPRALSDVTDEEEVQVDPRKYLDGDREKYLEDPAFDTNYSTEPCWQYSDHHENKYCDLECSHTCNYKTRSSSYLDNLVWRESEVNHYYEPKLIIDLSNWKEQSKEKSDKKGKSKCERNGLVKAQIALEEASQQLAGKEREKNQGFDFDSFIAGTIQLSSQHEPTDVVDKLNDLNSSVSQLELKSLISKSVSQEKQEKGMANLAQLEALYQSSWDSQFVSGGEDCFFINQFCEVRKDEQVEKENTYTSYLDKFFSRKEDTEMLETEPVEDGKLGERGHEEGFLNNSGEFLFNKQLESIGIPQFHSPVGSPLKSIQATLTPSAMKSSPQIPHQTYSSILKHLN
Erk3(1-340): residues 1-340 of Q16659
Erk3(341-721): residues 341-721 of Q16659
UniProt Q91UZ4: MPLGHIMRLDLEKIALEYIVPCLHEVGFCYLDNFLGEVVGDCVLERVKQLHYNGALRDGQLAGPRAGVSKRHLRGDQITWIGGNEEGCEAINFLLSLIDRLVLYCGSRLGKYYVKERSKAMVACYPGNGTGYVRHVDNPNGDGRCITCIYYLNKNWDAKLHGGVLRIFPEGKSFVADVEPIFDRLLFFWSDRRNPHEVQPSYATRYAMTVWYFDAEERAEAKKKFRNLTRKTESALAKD
UniProt P11142: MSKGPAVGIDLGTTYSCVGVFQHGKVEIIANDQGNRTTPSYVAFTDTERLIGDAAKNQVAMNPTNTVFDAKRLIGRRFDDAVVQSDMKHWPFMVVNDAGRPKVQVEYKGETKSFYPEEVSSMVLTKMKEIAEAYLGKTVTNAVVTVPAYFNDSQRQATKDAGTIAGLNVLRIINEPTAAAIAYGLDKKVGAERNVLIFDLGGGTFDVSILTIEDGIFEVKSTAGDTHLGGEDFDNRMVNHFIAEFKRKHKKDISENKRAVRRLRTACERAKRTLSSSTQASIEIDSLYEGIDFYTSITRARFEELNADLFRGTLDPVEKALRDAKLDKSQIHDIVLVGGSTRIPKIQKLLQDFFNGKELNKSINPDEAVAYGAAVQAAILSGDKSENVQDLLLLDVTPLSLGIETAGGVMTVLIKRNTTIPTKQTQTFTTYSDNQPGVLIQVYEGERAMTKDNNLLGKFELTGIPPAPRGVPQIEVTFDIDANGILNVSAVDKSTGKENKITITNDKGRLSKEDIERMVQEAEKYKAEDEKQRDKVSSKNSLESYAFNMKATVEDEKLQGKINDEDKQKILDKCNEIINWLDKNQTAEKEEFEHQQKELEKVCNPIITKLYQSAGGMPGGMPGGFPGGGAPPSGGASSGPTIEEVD

Tests used:
[1] = target: Erk3(P25A), hydroxylation-resistant mutant (UniProt Q16659); assay: pull-down; GST pull-down: lysates of transfected HEK293T cells (300-700 ug) in NETN buffer with Glutathione-Sepharose 4B beads; immunoblot
[2] = target: GST-Erk3, full-length (pEBG) (UniProt Q16659); assay: as above
[3] = target: Flag-tagged Erk3 (extracellular signal-regulated kinase 3), full-length (UniProt Q16659); assay: co-IP; lysates of transfected HEK293T cells; antibody (anti-Flag or control mouse IgG) with Protein A/G agarose overnight; immunoblot (anti-myc, anti-HA)
[4] = target: Erk3(P25A), hydroxylation-resistant mutant (UniProt Q16659); assay: as above
[5] = target: GST-EGLN3, full-length (mouse) (UniProt Q91UZ4); assay: pull-down; GST pull-down: lysates of transfected HEK293T cells (300-700 ug) in NETN buffer with Glutathione-Sepharose 4B beads; immunoblot
Erk3(341-721) = Erk3(341-721) (UniProt Q16659); assay: pull-down; GST pull-down from HEK293T cells co-transfected with Erk3 or a fragment, HSC70 or LAMP2A, and EGLN1, EGLN2, EGLN3 or R205K; DMOG in Fig. 4D and 4I
Erk3(1-340) = Erk3(1-340) (UniProt Q16659); assay: as above
[6] = target: GST-Erk3, full-length (pEBG) (UniProt Q16659); assay: as above

Row | binding [1] | binding [2] | binding [3] | binding [4] | binding [5] | Substance | binding (Erk3(341-721)) | binding (Erk3(1-340)) | binding [6]
1 | binds | binds | binds | binds |  | EGLN3 R205K, hydroxylase-inactive mutant (from UniProt Q91UZ4 1-239) (enzyme) |  |  | 
2 | binds | binds | binds | binds |  | EGLN3, wild-type (from UniProt Q91UZ4 1-239) (enzyme) |  |  | 
3 |  |  |  |  | binds | Flag-tagged Erk3 (extracellular signal-regulated kinase 3), full-length (from UniProt Q16659 1-721) |  |  | 

Row | Substance | binding [1] | binding [2] | binding [3] | binding [4] | binding [5] | binding (Erk3(341-721)) | binding (Erk3(1-340)) | binding [6]
4 | heat shock cognate protein of 70 kDa (HSC70) (from UniProt P11142 1-646) | binds | binds | binds |  |  | binds | binds | binds
